# Laboratory results from PubChem BioAssay AID540276 (National Center for Advancing Translational Sciences (NCATS), 2011).
# Out of some 300,000 compounds screened, about 5,400 (1.8%) were called active. Inconclusive results, whose numbers are uncertain, are shown with a selection of clear calls. Calls follow the shape of the full dose curve; tested in HEK293 cells. Where the call is inconclusive, the potency comes from a doubtful curve fit.
# Test: qHTS for inhibitors of binding or entry into cells for Marburg Virus
# Details: Marburg virus pseudotyped entry inhibition, cell reporter; series mostly up to 37.8 µM
# Potency is read from the fitted curve at half-maximal effect.
row,SMILES,Potency
1,CN(C)c1ccc(C=c2c3ccccc3n3c2cc(-c2ccccc2)[n+]3C)cc1,active: 2.82 µM
2,CN(C(=O)c1cccc(COc2ccc(Cl)cc2Cl)c1)c1ccccc1,"inconclusive: 6.51 µM [inhibitor, single point]"
3,O=C(NCCCOC(=O)c1ccccc1)c1ccccc1,inactive
4,CC(=O)N1CCc2cc(Br)cc(S(=O)(=O)N3CCC(C)CC3)c21,inactive
5,Cc1ccc(-c2nc3nc(C)cc(C)n3c2Nc2ccc3c(c2)OCCO3)cc1,"inconclusive: 20 µM [activator, single point]"
6,CC1=C(C(=O)Nc2ccccc2)[C@@H](c2ccncc2)C(C#N)=C(SCC(=O)NC(C)C)N1,"inconclusive: 1.3 µM [activator, partial curve, poor fit]"
7,Cc1c(C(=O)Nc2cccc(Cl)c2)c2ccccn2c1CCc1ccncc1,"inconclusive: 8.91 µM [inhibitor, partial curve, poor fit]"
8,COc1ccc(CNC(=O)c2ccc(-c3ccccc3)cc2)cc1,inactive
9,CN1C(=S)SC(N(O)C(=O)Nc2ccc(Cl)c(Cl)c2)C1(C)C (configuration not stated),"inconclusive: 1.03 µM [inhibitor, partial curve, poor fit]"
10,CCCOC(=O)CSC1=C(C#N)C(c2ccc3c(c2)OCO3)CC(=O)N1 (configuration not stated),"inconclusive: 35.5 µM [inhibitor, single point]"
11,N#Cc1c(NC(=O)CSc2nnc(-c3ccccc3)o2)sc2c1CCCC2,"inconclusive: 32.6 µM [inhibitor, single point]"
12,CC(c1cccs1)N(Cc1ccco1)C(=S)Nc1ccccc1Cl (configuration not stated),"inconclusive: 35.5 µM [inhibitor, single point]"
13,CCC(C(=O)Nc1cc(OC)c(NC(=O)c2ccccc2)cc1OC)c1ccccc1 (configuration not stated),inactive
14,O=C(COc1ccc([N+](=O)[O-])cc1)Nc1cccc2cccnc12,inactive
15,Cc1cccc(C)c1Nc1oc(-c2ccccc2)nc1-c1ccccc1F,"inconclusive: 0.596 µM [inhibitor, full curve, poor fit]"
16,CCN(CC)S(=O)(=O)c1cc(NC(=O)CNc2cccc(S(=O)(=O)N3CCOCC3)c2)ccc1C,"inconclusive: 0.708 µM [inhibitor, full curve, poor fit]"
17,Cc1cccc(N(C(=O)c2snc(C(N)=O)c2N)C(C(=O)NC2CCCC2)c2ccco2)c1 (configuration not stated),"inconclusive: 9.2 µM [inhibitor, partial curve, poor fit]"
18,CC(NC(=S)NCCN1CCOCC1)C12CC3CC(CC(C3)C1)C2 (configuration not stated),"inconclusive: 8.91 µM [inhibitor, partial curve, poor fit]"
19,COc1ccc(C2/C(=C(\O)c3cc(C)ccc3C)C(=O)C(=O)N2CCN(C)C)cc1OC (configuration not stated),inactive
20,CCN(CCNCC(O)COCc1ccc(Cl)cc1)c1cccc(C)c1 (configuration not stated),"inconclusive: 11.2 µM [inhibitor, partial curve, poor fit]"
21,Cc1cc(=O)oc2cc(OCC3CC(c4ccccc4)=NO3)ccc12 (configuration not stated),"inconclusive: 2.59 µM [inhibitor, partial curve, poor fit]"

# Part of the list above in order of count of non-hydrogen atoms, largest number first.
row,SMILES,Potency
17,Cc1cccc(N(C(=O)c2snc(C(N)=O)c2N)C(C(=O)NC2CCCC2)c2ccco2)c1 (configuration not stated),"inconclusive: 9.2 µM [inhibitor, partial curve, poor fit]"
19,COc1ccc(C2/C(=C(\O)c3cc(C)ccc3C)C(=O)C(=O)N2CCN(C)C)cc1OC (configuration not stated),inactive
21,Cc1cc(=O)oc2cc(OCC3CC(c4ccccc4)=NO3)ccc12 (configuration not stated),"inconclusive: 2.59 µM [inhibitor, partial curve, poor fit]"

# (continued)

row,SMILES,Potency
1,Cc1ccc(Cn2c(=N)n(CC(O)COc3ccccc3)c3ccccc32)cc1 (configuration not stated),active: 15.8 µM
2,COc1ccc(CCNC(=O)COc2ccc(S(=O)(=O)NC3CCCCC3)cc2Cl)cc1OC,"inconclusive: 14.1 µM [inhibitor, single point]"
3,O=C(O)c1cc2c(=O)c3ccccc3oc2nc1C(F)(F)F,inactive
4,COc1cccc(-c2cc(C(=O)Nc3ccncc3)c3ccccc3n2)c1,"inconclusive: 1.58 µM [inhibitor, partial curve, poor fit]"
5,O=C(Nc1cccc(Cl)c1N1CCOCC1)c1ccc2c(c1)OCCO2,"inconclusive: 29.1 µM [inhibitor, single point]"
6,CC(=O)Nc1cccc(NC(=O)CSc2ccc(-c3cccnc3)nn2)c1,"inconclusive: 1.26 µM [inhibitor, full curve, poor fit]"
7,CC(C)(C)NCc1cccn1-c1sc2c(c1C#N)CCCC2,"inconclusive: 5.62 µM [inhibitor, single point]"
8,CN(C)c1ccccc1C(=O)N1CCCC(C(=O)c2ccc3ccccc3c2)C1 (configuration not stated),"inconclusive: 10 µM [inhibitor, partial curve, poor fit]"
9,O=C(Nc1nncs1)c1cc(-c2ccncc2)nc2ccc(Cl)cc12,inactive
10,NS(=O)(=O)c1cccc(NC(=O)CSc2nc3ccccc3c(=O)n2CCCN2CCOCC2)c1,inactive
11,O=C(c1ccc(Cl)cc1)c1c[nH]c(C(=O)NNc2cccc(Cl)n2)c1,"inconclusive: 15.8 µM [inhibitor, single point]"
12,CCOC(=O)C1CCC(CNCc2ccc(Cl)cc2)CC1 (configuration not stated),"inconclusive: 3.55 µM [activator, single point]"
13,COc1ccc(OC)c(C2=Nn3c(nnc3-c3cc(C)[nH]n3)SC2)c1,"inconclusive: 12.6 µM [inhibitor, single point]"
14,COCCNC(=O)CCc1c(C)nc2c(c(C)nn2-c2ccc(C)cc2)c1C,"inconclusive: 35.5 µM [activator, single point]"
15,C=C(C)C1CC23C(=O)[C@]4(C(=O)c5ccccc5)C[C@@]5(C)CCC(CC2C1(C)C)(C4=O)[C@@]35OC (some centres not stated),inactive
16,CCCNC(=S)N1CCN(c2nc(-c3ccc(C)cc3)cs2)CC1,"inconclusive: 35.5 µM [inhibitor, single point]"
17,COc1ccc(CNC(=O)c2ccc3c(c2)N(Cc2ccccc2F)C(=O)c2ccccc2S3(=O)=O)cc1,inactive
18,CC(=O)Nc1ccc(NC(=O)CSc2ccc(-c3ccc4c(c3)OCO4)nn2)cc1,"inconclusive: 11.2 µM [activator, partial curve, poor fit]"
19,COc1ccc(NC(=O)c2cc(-c3ccccc3O)n[nH]2)cc1Cl,"inconclusive: 4.47 µM [activator, single point]"
20,Cc1cc(NN)nc2ccc(Cl)cc12,"inconclusive: 3.55 µM [activator, partial curve, poor fit]"
21,CC(C)Cc1nnc(NC(=O)CCC(=O)N2CCN(CCOC(c3ccccc3)c3ccccc3)CC2)s1,"inconclusive: 0.1 µM [activator, partial curve, poor fit]"
